Data from US20150238483A1, “Traitement des neuronopathies motrices” (CENTRE NATIONAL DE LA RECHERCHE SCIENTIFIQUE- CNRS, priority 2012, published 2015).
Structures can show the parent of a compound that is named as a salt.

Tested on: immortalized SMA fibroblasts
Experiment: Distribution of the SMN protein to Cajal bodies (CBs) in immortalized SMA fibroblasts, immunolabeling, cells counted
Type: cell-based, human
Settings: immortalized type I line; for EC50: Homo sapiens, Fibroblast, dose-response on CBs with SMN
Procedure: This immortalization is described in the publication Lefebvre S, Burlet P, Viollet L, Bertrandy S, Huber C, Belser C and Munnich A. A novel association of the SMN protein with major non-ribosomal nucleolar proteins and its implication in spinal muscular atrophy. Hum Mol Genet (2002) 11 (9): 1017-1027.
The blockers of the invention are commercially available (for example from Sigma-Aldrich) and are sold in 96-well plates, at 2 milligrams per molecule per well to be dissolved in 1 ml of DMSO.
In order to determine whether the calcium channel blockers exerted a positive effect, the inventors counted the cells which had the SMN protein located in the CBs out of 100 cells randomly selected for each experiment.
This experiment was repeated three times.
A value of induction by a factor equal to 1 was arbitrarily assigned to DMSO.
In order to evaluate the relationship between the concentration (dose) and the effect (response) on the CBs of the immortalized SMA cells, the inventors constructed a dose-response curve for each of the molecules.

SMILES	EC50 [nM]	Dilution at EC50 (dilution relative to 2 μg/ml)
CCCCc1oc2ccccc2c1C(=O)c1cc(I)c(OCCN(CC)CC)c(I)c1 [Amiodarone hydrochloride, (2-butyl-3-benzofuranyl)[4-[2-(diethylamino)ethoxy]-3,5-diiodophenyl]methanone hydrochloride]	60 ± 26	1/50
Fc1ccc(C(c2ccc(F)cc2)N2CCN(C/C=C/c3ccccc3)CC2)cc1 [Flunarizine dihydrochloride, flunarizine dihydrochloride]	~80	–
